Earlier results, collected in patent publication US10716820B2, “Composition for treatment of oxidative stress and cardiovascular disease” (TEAM FOODS COLOMBIA S.A., priority 2015, dated 2020).
At least one compound was matched to its structure with a doubt left.

Test system: DAF-16
Settings: C. elegans; insulin/IGF-I (IIS) pathway

SMILES: Cc1ccc(-c2cc(C(F)(F)F)nn2-c2ccc(S(N)(=O)=O)cc2)cc1 [Celecoxib]
- dependence of drug effect on DAF-16: requires the activity of DAF-16
